# Results published in patent US20030130210A1, “Method for treating a patient with neoplasia by treatment with an anthracycline antibiotic” (priority 1998, published 2003).
# Some of these results come from one statement about several compounds together.
# System: cGMP-PDE
# Experiment: cGMP-PDE inhibition assay, enzyme purified from HT-29 cells
# Type: biochemical, human
compound,measurement,value
"COc1cc(C=C2C(C)=C(CC(=O)O)c3cc(F)ccc32)cc(OC)c1OC [Compound B, (Z)-5-Fluoro-2-methyl-1-(3,4,5-trimethoxybenzylidene)-3-acetic acid]",cGMP PDE inhibition at a dose of 20 μM,greater than 50%
